No constants are given. Whether binding was seen depends on the method and setting. Binding seen in cells or lysates may run through a third protein. Binding can be weak; no strength is given. Where a sequence is shown, tags or fusion partners need not be part of it.
Target: T1, GTPBP5::FLAG (C-terminal FLAG-tagged GTPBP5) (human) (UniProt Q9H4K7)
T1 sequence: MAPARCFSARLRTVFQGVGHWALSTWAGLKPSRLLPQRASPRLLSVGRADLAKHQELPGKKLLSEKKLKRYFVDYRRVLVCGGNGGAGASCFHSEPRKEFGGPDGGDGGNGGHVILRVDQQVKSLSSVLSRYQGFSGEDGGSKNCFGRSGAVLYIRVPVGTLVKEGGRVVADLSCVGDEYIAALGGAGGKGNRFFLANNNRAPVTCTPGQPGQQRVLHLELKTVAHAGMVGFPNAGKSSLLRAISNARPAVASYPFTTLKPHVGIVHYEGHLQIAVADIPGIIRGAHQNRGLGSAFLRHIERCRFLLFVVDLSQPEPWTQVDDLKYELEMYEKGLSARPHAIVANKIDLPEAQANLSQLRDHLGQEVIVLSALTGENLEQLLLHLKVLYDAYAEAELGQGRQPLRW
Assay: co-IP; FLAG-IP from mitochondrial lysate, buffers with 5 mM MgCl2, elution with 3X FLAG peptide; input and eluate by western blot; no nucleotide or RNase added

## MTG1 (GTPBP7) (human (endogenous in HEK293T))
  binding: binds
